Reference: publication PMC6238531, “The ER morphology-regulating lunapark protein induces the formation of stacked bilayer discs” (Life Science Alliance, 2018)
Results are given in words; binding and its absence hold for the method and conditions named. Some binding calls cover weakened binding; strength is not graded here.

Target: T1, SBP-tagged full-length human Lnp (human, UniProt Q9C0E8 1-428)
T1 construct: lunapark (Lnp), human, full length; a tobacco etch virus protease cut site stands between Lnp and the SBP tag; Membrane protein with two TM segments, kept in 0.05% Triton X-100 in the pull-down; also called lunapark; SBP-tagged human Lnp; source: S. cerevisiae (pRS425, GAL1 promoter), purified in Triton X-100 (streptavidin resin, biotin elution, SEC on Superose 6); not shown: SBP, C-terminal, kept
T1 sequence (looked up): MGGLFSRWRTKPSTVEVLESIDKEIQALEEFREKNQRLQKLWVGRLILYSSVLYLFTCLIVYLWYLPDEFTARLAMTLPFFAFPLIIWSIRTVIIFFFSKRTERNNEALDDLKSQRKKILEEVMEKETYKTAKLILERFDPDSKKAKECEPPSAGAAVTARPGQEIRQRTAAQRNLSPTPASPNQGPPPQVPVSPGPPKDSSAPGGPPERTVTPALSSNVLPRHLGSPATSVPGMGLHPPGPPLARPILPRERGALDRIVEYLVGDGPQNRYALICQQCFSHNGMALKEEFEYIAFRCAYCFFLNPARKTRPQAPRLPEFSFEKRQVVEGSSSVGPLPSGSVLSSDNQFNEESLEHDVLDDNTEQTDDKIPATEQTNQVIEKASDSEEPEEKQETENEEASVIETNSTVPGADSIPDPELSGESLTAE
Test: pull-down; SBP-tagged human Lnp mixed with His10-tagged Lnp (molar ratio 1:3 or 1:5), 1 h at 4°C in 20 mM Hepes pH 7.5, 100 mM KCl, 1 mM dithiothreitol, 0.05% Triton X-100; held on streptavidin resin, washed, eluted with 2 mM biotin; SDS-PAGE and Coomassie blue staining; both purified

How did the binding turn out when “Lnp lacking the Zn2+-finger domain (ΔI275–F302) (from UniProt Q9C0E8 1-428)” was run?
The binding was “binds”.
